Results are given in words; binding and its absence hold for the method and conditions named. For part of these data: Binding seen in cells or lysates may run through a third protein. Some results given as binding are weak or reduced against the parent protein; the word gives no strength. For part of these data: Where a sequence is shown, tags or fusion partners need not be part of it.
Experiments:
[1] = biological target: T1, GST-ATG6 (Arabidopsis thaliana) (UniProt Q9M367); assay: pull-down; GST, GST-ATG6 on GST-tag Purification Resin (2 hr, 4°C, washed with PBS), then incubated with NPR1-His for 2 hr at 4°C; western blot with anti-GST and anti-His; only the target purified
T1 sequence: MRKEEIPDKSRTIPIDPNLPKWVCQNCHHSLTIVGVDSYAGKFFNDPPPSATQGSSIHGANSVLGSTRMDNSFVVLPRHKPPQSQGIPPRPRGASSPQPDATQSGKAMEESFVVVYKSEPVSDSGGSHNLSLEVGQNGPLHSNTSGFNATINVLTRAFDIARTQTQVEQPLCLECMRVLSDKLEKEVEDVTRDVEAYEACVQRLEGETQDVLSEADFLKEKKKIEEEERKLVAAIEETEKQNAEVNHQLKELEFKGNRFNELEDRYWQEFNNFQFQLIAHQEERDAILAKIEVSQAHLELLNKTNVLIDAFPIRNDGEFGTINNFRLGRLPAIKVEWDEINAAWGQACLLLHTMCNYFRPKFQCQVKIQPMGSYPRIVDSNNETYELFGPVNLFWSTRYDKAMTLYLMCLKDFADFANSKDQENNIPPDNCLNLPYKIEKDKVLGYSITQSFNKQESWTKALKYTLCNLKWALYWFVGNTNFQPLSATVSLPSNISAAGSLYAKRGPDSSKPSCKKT

Chains of the proteins cited; added tags and fusions are not shown. Lines headed by an entry give the natural chain unless they say otherwise; changes in a name come on top. Residues count along the entry.
UniProt P93002: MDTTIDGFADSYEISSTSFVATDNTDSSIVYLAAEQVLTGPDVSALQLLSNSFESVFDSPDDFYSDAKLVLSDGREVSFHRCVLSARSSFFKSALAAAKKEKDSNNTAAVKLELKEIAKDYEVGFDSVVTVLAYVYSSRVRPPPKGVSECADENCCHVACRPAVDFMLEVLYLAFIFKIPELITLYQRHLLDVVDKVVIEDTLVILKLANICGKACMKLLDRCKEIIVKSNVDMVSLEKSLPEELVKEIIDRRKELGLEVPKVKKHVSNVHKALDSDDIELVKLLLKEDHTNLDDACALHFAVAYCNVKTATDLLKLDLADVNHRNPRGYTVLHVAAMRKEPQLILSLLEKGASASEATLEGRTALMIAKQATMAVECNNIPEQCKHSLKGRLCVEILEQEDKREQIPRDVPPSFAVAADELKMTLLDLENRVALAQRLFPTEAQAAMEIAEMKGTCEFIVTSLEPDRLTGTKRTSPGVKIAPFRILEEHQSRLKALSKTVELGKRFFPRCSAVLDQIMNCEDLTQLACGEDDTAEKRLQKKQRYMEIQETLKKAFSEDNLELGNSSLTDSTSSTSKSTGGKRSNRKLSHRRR
NPR1-C-BD: residues 328-593 of P93002

[2] = biological target: NPR1-C-BD (Arabidopsis thaliana) (UniProt P93002); assay: two-hybrid; Gal4 system in yeast AH109; NPRs as BD bait, ATGs or SnRK2.8 as AD prey; growth on SD/-Trp-Leu-His-Ade, normal conditions (no SA)
[3] = biological target: T2, NPR3-BD (Arabidopsis thaliana) (UniProt Q8L746); assay: as above
T2 sequence: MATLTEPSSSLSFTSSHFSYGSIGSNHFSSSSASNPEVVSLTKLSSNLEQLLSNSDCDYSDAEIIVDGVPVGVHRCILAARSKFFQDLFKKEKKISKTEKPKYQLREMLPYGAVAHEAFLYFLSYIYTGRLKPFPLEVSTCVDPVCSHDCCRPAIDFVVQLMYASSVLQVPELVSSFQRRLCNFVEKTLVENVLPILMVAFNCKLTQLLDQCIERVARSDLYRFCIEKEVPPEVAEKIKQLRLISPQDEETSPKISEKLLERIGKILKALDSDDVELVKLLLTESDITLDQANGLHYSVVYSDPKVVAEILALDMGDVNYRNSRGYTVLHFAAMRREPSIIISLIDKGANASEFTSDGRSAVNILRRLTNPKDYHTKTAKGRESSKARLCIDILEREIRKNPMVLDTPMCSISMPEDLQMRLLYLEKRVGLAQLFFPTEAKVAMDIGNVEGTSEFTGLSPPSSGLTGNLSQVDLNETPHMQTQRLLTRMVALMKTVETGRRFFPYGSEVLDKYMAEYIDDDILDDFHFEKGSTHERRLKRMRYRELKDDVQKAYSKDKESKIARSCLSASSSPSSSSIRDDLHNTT

[4] = biological target: T3, NPR4-BD (Arabidopsis thaliana) (UniProt Q5ICL9); assay: as above
T3 sequence: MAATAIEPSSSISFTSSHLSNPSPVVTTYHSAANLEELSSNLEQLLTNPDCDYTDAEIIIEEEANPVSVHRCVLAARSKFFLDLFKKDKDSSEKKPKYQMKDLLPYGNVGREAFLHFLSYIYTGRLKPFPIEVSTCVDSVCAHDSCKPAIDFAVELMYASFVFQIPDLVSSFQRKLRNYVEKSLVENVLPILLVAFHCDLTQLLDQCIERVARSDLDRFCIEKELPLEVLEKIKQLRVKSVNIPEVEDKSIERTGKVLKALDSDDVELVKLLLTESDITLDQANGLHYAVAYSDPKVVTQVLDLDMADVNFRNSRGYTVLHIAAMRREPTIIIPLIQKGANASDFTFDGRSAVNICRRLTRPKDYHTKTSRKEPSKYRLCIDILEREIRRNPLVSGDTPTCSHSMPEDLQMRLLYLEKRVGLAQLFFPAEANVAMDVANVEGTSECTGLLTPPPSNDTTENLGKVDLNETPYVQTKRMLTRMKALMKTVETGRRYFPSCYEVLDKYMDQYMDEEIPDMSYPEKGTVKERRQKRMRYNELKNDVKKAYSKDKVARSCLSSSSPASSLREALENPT

[5] = biological target: NPR1-BD (Arabidopsis thaliana) (UniProt P93002); assay: as above
[6] = biological target: T2, NPR3-BD (Arabidopsis thaliana); assay: two-hybrid; Gal4 system in yeast AH109; NPRs-BD with ATGs-AD; growth on SD/-Trp-Leu-His-Ade with different SA concentrations
[7] = biological target: T3, NPR4-BD (Arabidopsis thaliana); assay: as above
[8] = biological target: NPR1-BD (Arabidopsis thaliana) (UniProt P93002); assay: as above
[9] = biological target: NPR1-GFP (Arabidopsis thaliana) (UniProt P93002); assay: co-IP; N. benthamiana leaves transiently transformed with ATG6-mCherry + NPR1-GFP; lysate with 150 mM NaCl, 0.2% NP40; IP with GFP-Trap Magnetic Agarose; blots with ATG6 and GFP antibodies
[10] = biological target: NPR1-nYFP (Arabidopsis thaliana) (UniProt P93002); assay: split reporter; BiFC: cYFP and nYFP fusions co-expressed in leaves of nls-mCherry N. benthamiana for 3 days; YFP by confocal microscopy

Q: Which binding [1] does the source give for NPR1-His (from UniProt P93002 1-593) here?
A: Its binding is “binds”.

B1: ATG6-AD (protein, UniProt Q9M367 1-517)
chain: MRKEEIPDKSRTIPIDPNLPKWVCQNCHHSLTIVGVDSYAGKFFNDPPPSATQGSSIHGANSVLGSTRMDNSFVVLPRHKPPQSQGIPPRPRGASSPQPDATQSGKAMEESFVVVYKSEPVSDSGGSHNLSLEVGQNGPLHSNTSGFNATINVLTRAFDIARTQTQVEQPLCLECMRVLSDKLEKEVEDVTRDVEAYEACVQRLEGETQDVLSEADFLKEKKKIEEEERKLVAAIEETEKQNAEVNHQLKELEFKGNRFNELEDRYWQEFNNFQFQLIAHQEERDAILAKIEVSQAHLELLNKTNVLIDAFPIRNDGEFGTINNFRLGRLPAIKVEWDEINAAWGQACLLLHTMCNYFRPKFQCQVKIQPMGSYPRIVDSNNETYELFGPVNLFWSTRYDKAMTLYLMCLKDFADFANSKDQENNIPPDNCLNLPYKIEKDKVLGYSITQSFNKQESWTKALKYTLCNLKWALYWFVGNTNFQPLSATVSLPSNISAAGSLYAKRGPDSSKPSCKKT
Q: How did the binding [2] turn out when B1 was run?
A: The binding was “binds”.

Q: And the binding [3]?
A: Its binding is “binds”.

Q: And the binding [4]?
A: The binding was “binds”.

Q: And the binding [5]?
A: Its binding is “binds”.

Q: What about the binding [6] of the same molecule?
A: Its binding is “binds”.

Q: And the binding [7]?
A: The binding was “binds”.

Q: What about the binding [8] of the same molecule?
A: The binding was “binds”.

B2: ATG6-mCherry (protein, UniProt Q9M367 1-517)
chain: MRKEEIPDKSRTIPIDPNLPKWVCQNCHHSLTIVGVDSYAGKFFNDPPPSATQGSSIHGANSVLGSTRMDNSFVVLPRHKPPQSQGIPPRPRGASSPQPDATQSGKAMEESFVVVYKSEPVSDSGGSHNLSLEVGQNGPLHSNTSGFNATINVLTRAFDIARTQTQVEQPLCLECMRVLSDKLEKEVEDVTRDVEAYEACVQRLEGETQDVLSEADFLKEKKKIEEEERKLVAAIEETEKQNAEVNHQLKELEFKGNRFNELEDRYWQEFNNFQFQLIAHQEERDAILAKIEVSQAHLELLNKTNVLIDAFPIRNDGEFGTINNFRLGRLPAIKVEWDEINAAWGQACLLLHTMCNYFRPKFQCQVKIQPMGSYPRIVDSNNETYELFGPVNLFWSTRYDKAMTLYLMCLKDFADFANSKDQENNIPPDNCLNLPYKIEKDKVLGYSITQSFNKQESWTKALKYTLCNLKWALYWFVGNTNFQPLSATVSLPSNISAAGSLYAKRGPDSSKPSCKKT
Q: B2 was tested. Which binding [9] did it give?
A: Its binding is “binds”.

B3: ATG6-cYFP (protein, UniProt Q9M367 1-517)
chain: MRKEEIPDKSRTIPIDPNLPKWVCQNCHHSLTIVGVDSYAGKFFNDPPPSATQGSSIHGANSVLGSTRMDNSFVVLPRHKPPQSQGIPPRPRGASSPQPDATQSGKAMEESFVVVYKSEPVSDSGGSHNLSLEVGQNGPLHSNTSGFNATINVLTRAFDIARTQTQVEQPLCLECMRVLSDKLEKEVEDVTRDVEAYEACVQRLEGETQDVLSEADFLKEKKKIEEEERKLVAAIEETEKQNAEVNHQLKELEFKGNRFNELEDRYWQEFNNFQFQLIAHQEERDAILAKIEVSQAHLELLNKTNVLIDAFPIRNDGEFGTINNFRLGRLPAIKVEWDEINAAWGQACLLLHTMCNYFRPKFQCQVKIQPMGSYPRIVDSNNETYELFGPVNLFWSTRYDKAMTLYLMCLKDFADFANSKDQENNIPPDNCLNLPYKIEKDKVLGYSITQSFNKQESWTKALKYTLCNLKWALYWFVGNTNFQPLSATVSLPSNISAAGSLYAKRGPDSSKPSCKKT
Q: Which binding [10] does the source give for B3 here?
A: The binding was “binds”.

B4: SnRK2.8-cYFP (protein, UniProt Q9M9E9 1-343)
chain: MERYEIVKDIGSGNFGVAKLVRDKFSKELFAVKFIERGQKIDEHVQREIMNHRSLIHPNIIRFKEVLLTATHLALVMEYAAGGELFGRICSAGRFSEDEARFFFQQLISGVNYCHSLQICHRDLKLENTLLDGSEAPRVKICDFGYSKSGVLHSQPKTTVGTPAYIAPEVLSTKEYDGKIADVWSCGVTLYVMLVGAYPFEDPSDPKDFRKTIGRILKAQYAIPDYVRVSDECRHLLSRIFVANPEKRITIEEIKNHSWFLKNLPVEMYEGSLMMNGPSTQTVEEIVWIIEEARKPITVATGLAGAGGSGGSSNGAIGSSSMDLDDLDTDFDDIDTADLLSPL
Q: Which binding [10] does the source give for B4 here?
A: Its binding is “binds”.

B5: SnRK2.8-AD (protein, UniProt Q9M9E9 1-343)
chain: MERYEIVKDIGSGNFGVAKLVRDKFSKELFAVKFIERGQKIDEHVQREIMNHRSLIHPNIIRFKEVLLTATHLALVMEYAAGGELFGRICSAGRFSEDEARFFFQQLISGVNYCHSLQICHRDLKLENTLLDGSEAPRVKICDFGYSKSGVLHSQPKTTVGTPAYIAPEVLSTKEYDGKIADVWSCGVTLYVMLVGAYPFEDPSDPKDFRKTIGRILKAQYAIPDYVRVSDECRHLLSRIFVANPEKRITIEEIKNHSWFLKNLPVEMYEGSLMMNGPSTQTVEEIVWIIEEARKPITVATGLAGAGGSGGSSNGAIGSSSMDLDDLDTDFDDIDTADLLSPL
Q: Which binding [5] does the source give for B5 here?
A: The binding was “binds”.

Source: paper PMC11879114
